This is one part of the list. Shown are side measurements of this screen, not its main read-out; they come without a call. Compounds called inactive in the main read-out are mostly missing here. The note in brackets gives the kind of curve behind each potency; many fits are weak.
Experiment: qHTS Assay to Find Inhibitors of Chronic Active B-Cell Receptor Signaling
Details: ABC-DLBCL IkBa-CBG/CBR reporter, luminescence ratio (green luciferase fused to IkBa over red control in TMD8 lymphoma cells), 4 h
In short: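 Concentration-response series (up to 46 uM) were applied to TMD8 dual-reporter cells for 4 h at 37C with doxycycline. Green/red ratio, after filter-overlap correction, defined %Activity; red signal alone was normalised to basal cells and zero luminescence.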

[1] = measured here: CBR red luminescence, cell number
[2] = measured here: IkBa-CBG green luminescence

Structure (SMILES)	AC50 [1]	AC50 [2]
CCc1nnc(NC(=O)Cn2nc(-c3ccc(OC)c(OC)c3)ccc2=O)s1	0.731 µM [rising, partial curve, poor fit]	–
COc1ccc(-c2cc(C(F)(F)F)c(C#N)c(SCC(=O)Nc3ccc(C)cc3)n2)cc1	0.092 µM [falling, full curve, poor fit]	–
O=C(Nc1ccc(F)cc1)N(Cc1cccs1)Cc1cc2cc3c(cc2[nH]c1=O)OCO3	6.51 µM [falling, partial curve, poor fit]	–
O=C(Nc1nnc(-c2cccs2)o1)c1ccco1	6.51 µM [falling, partial curve, poor fit]	–
CN(C(=O)COC(=O)c1ccccc1Nc1ccccc1)C1CCS(=O)(=O)C1 (stereo not drawn)	15.8 µM [falling, partial curve, poor fit]	–
O=C1C(Cl)=C(N2CCCCCC2)C(=O)N1c1ccc(Cl)cc1	22.4 µM [falling, single point]	–
COc1cccc(/C=C/C(=O)Nc2cccc(C(C)=O)c2)c1OC	11.2 µM [falling, partial curve, poor fit]	–
CCOC(=O)c1[nH]c(COC(=O)c2ccccc2NC(=O)c2ccco2)c(C(=O)OCC)c1C	25.1 µM [falling, single point]	–
COc1ccc2[nH]cc(CCNC(=O)CC[C@H]3O[C@@H](n4cc(C)c(=O)[nH]c4=O)C[C@@H]3O)c2c1	16.4 µM [rising, partial curve, poor fit]	–
CCc1ccc(NC(=O)C(C)OC(=O)/C=C/c2ccc(O)c(OC)c2)cc1 (stereo not drawn)	–	18.4 µM [falling, partial curve]
Fc1ccccc1-c1nc(-c2ccc(Br)o2)no1	2 µM [rising, partial curve, poor fit]	–
COc1cc(C[C@H](C)[C@H](C)Cc2ccc3c(c2)OCO3)ccc1O	10 µM [rising, single point]	–
O=C(NCCSc1c[nH]c2ccccc12)c1ccc2c(c1)OCO2	20 µM [falling, partial curve, poor fit]	–
CCOCCCNC(=S)N1C2CCC1CC(NC(=O)NC13CC4CC(CC(C4)C1)C3)C2 (stereo not drawn)	16.4 µM [falling, partial curve, poor fit]	–
CCCCCC(=O)c1ccc(O)cc1O	11.2 µM [rising, partial curve]	–
COc1ccccc1NC(=O)C(C)Nc1ccc(C)c(Cl)c1 (stereo not drawn)	25.1 µM [falling, single point]	–
COc1ccc(-c2nc(C(N)=O)c3[nH]c(=O)n(-c4ccccc4OC)c3n2)c(OC)c1	0.731 µM [rising, full curve]	1.64 µM [falling, partial curve, poor fit]
CC(=O)NCCc1nc2cc(NC(=O)c3cccs3)ccc2n1C	3.16 µM [falling, single point]	–
COc1ccc(C[C@](C)(N)C(=O)O)cc1OC	–	18.4 µM [falling, partial curve, poor fit]
COc1ccc(OC)c(N=Cc2c(O)[nH]c3ccccc23)c1	0.251 µM [falling, full curve, poor fit]	–

2 entries drawn at random from those above, as already listed:
Structure (SMILES)	AC50 [1]	AC50 [2]
COc1ccc(C[C@](C)(N)C(=O)O)cc1OC	–	18.4 µM [falling, partial curve, poor fit]
CCOCCCNC(=S)N1C2CCC1CC(NC(=O)NC13CC4CC(CC(C4)C1)C3)C2 (stereo not drawn)	16.4 µM [falling, partial curve, poor fit]	–

Remaining list, next part

Structure (SMILES)	AC50 [1]	AC50 [2]
COc1ccccc1C(=O)NCCC(=O)Nc1nc2ccccc2[nH]1	10.3 µM [falling, partial curve]	–
CCN(CC)c1ccc(CNc2nc3ccccc3n2CCN2CCCCC2)cc1	15.8 µM [falling, single point]	–
O=c1oc2ccccc2cc1-c1cn2ccccc2n1	3.16 µM [falling, full curve]	–
Brc1ccc(-c2nnc(Cc3ccccc3)o2)cc1	11.2 µM [falling, single point]	–
CCOc1ccc(Oc2cc(N)cc([N+](=O)[O-])c2)cc1	35.5 µM [rising, partial curve, poor fit]	–
CCN(c1ccccc1)S(=O)(=O)c1ccc(NC(=O)c2ccco2)cc1	35.5 µM [falling, single point]	–
CCOC(=O)c1ccc(NC(=O)c2cccc(C)c2[N+](=O)[O-])cc1	11.2 µM [falling, partial curve, poor fit]	–
CC(Sc1ccccn1)C(=O)Nc1ccc2c(c1)OCO2 (stereo not drawn)	29.1 µM [rising, single point]	–
O=C(CN1CCOCC1)Nc1ncc(Br)cc1Br	0.517 µM [falling, full curve, poor fit]	–
Cn1c(=O)c2ncn(CC(=O)N/N=C/C=C/c3ccccc3)c2n(C)c1=O	35.5 µM [rising, partial curve, poor fit]	–
Clc1ccc2c(c1)C1OCCC1C(c1ccco1)N2 (stereo not drawn)	29.1 µM [falling, single point]	16.4 µM [rising, partial curve, poor fit]
CCCn1c(SCC(=O)Nc2ccccc2N2CCOCC2)nc2c1c(=O)n(C)c(=O)n2C	0.00651 µM [falling, full curve, poor fit]	–
CCOC(=O)C1=C(COC(=O)C2(C)CC2(Cl)Cl)NC(=O)NC1c1ccccc1 (stereo not drawn)	6.31 µM [falling, partial curve, poor fit]	–
O=C(NNS(=O)(=O)c1ccc(F)cc1)c1ccc([N+](=O)[O-])cc1	0.501 µM [rising, partial curve, poor fit]	–
CC(=O)NC1=NC(=O)/C(=C/N2CCOCC2)S1	1.3 µM [falling, full curve, poor fit]	–
COCc1ccc(C(=O)Nc2ccc(C(=O)O)cc2)o1	22.4 µM [falling, single point]	–
CCCCCCCCn1c2c(c(=N)c3c1CCC3)CCCC2	35.5 µM [falling, single point]	–
O=C(NCc1ccco1)c1cc(-c2ccco2)on1	11.2 µM [falling, single point]	–
COc1ccc2oc(CS(=O)c3ccccc3)c(C(=O)O)c2c1 (stereo not drawn)	1 µM [falling, full curve]	–
Cc1noc(NS(=O)(=O)c2ccc(N/C=C\C(=O)c3ccncc3)cc2)c1C	6.51 µM [falling, single point]	6.51 µM [rising, partial curve, poor fit]
